Laboratory results: PubChem BioAssay AID1439 (NMMLSC, 2008)
In all, about 220,000 compounds went through this assay and about 770 (0.35%) were called active. Inconclusive means that the source gave no clear call. Such entries were picked first, then a sample of the others. No stated cut-off is given here; in the data, active means binding response below about 49% or above about 150%; inconclusive means no clear call, values can overlap the other calls; inactive means in between.

Chains of the proteins cited; added tags and fusions are not shown.
UniProt P09471, whole entry, looked up: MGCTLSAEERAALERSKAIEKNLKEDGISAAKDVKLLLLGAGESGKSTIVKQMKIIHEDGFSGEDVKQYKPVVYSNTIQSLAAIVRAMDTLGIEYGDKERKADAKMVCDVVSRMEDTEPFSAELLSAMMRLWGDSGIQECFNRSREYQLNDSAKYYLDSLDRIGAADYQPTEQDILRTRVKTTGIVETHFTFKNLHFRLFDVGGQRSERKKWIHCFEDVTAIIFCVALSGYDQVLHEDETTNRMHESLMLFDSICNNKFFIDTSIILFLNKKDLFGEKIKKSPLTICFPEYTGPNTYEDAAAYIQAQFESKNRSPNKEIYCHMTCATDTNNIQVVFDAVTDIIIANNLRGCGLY

target: Guanine nucleotide-binding protein G(o) subunit alpha (Homo sapiens) (UniProt P09471); test: RGS7-Galphao binding modulators, primary screen, biochemical, multiplexed bead flow cytometry (AID 1439); conditions: at 10 µM, actives lie on both sides;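 further: fluorescent Galphao held in activated GDP-AlF4 state binding bead-coupled RGS7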

| SMILES | binding response (% of control) |
| --- | --- |
| CC(OC(=O)c1ccco1)C(=O)Nc1ccc(Cl)cn1 (stereo not given) | inconclusive: 91.5% |
| O=C1SC(SC(=Nc2ccccc2)Nc2ccccc2)C(=O)N1c1ccccc1 (stereo not given) | inactive: 98.1% |
| COc1ccc(CNC(=O)C2CCC(=O)N2C(C)C)c(OC)c1 (stereo not given) | inconclusive: 99.9% |
| COc1ccc(OCC(=O)Nc2cc(-c3nn(C)c(=O)c4ccccc34)ccc2N2CCOCC2)cc1 | inconclusive: 104% |
| Cc1c(C(=O)O)c(C(=O)O)c2n1CCS2 | inconclusive: 124% |
| O=C(NC1CC(=O)c2sccc21)c1cccc(C(F)(F)F)c1 (stereo not given) | inconclusive: 102% |
| Cn1nccc1NS(=O)(=O)c1ccc(NC(=O)C(F)(F)F)cc1 | inconclusive: 21.6% |
| COC(=O)c1ccc(NC(=O)Cc2ccc(F)cc2)cc1 | inconclusive: 110% |
| c1ccc(-c2nc3ccccc3[nH]2)nc1 | active: 158% [activator] |
| Cc1cc(=O)oc2c(CN(CC(C)C)CC(C)C)c(O)ccc12 | inactive: 115% |
| Cn1c(=O)c2c(ncn2CC(=O)N2CCCCCC2)n(C)c1=O | inconclusive: 101% |
| Cc1cccc(C(=O)N2CCN(c3ccc(N4CCOCC4)nn3)CC2)c1 | inconclusive: -107% |
| C=CCn1c(SCc2nc3ccccc3c(=O)[nH]2)nc2scc(C3CC3)c2c1=O | inconclusive: 106% |
| Cc1ccccc1-n1c(SCC(=O)Nc2ccccc2)nc2nc3c(cc2c1=O)CCCC3 | inactive: 101% |
| CCC(C)(C)NC(=O)CN(C(=O)C(=O)Nc1ccc2c(c1)OCCO2)C(C)(C)CC | inconclusive: 95.1% |
| Cc1ccc(/C=N/NC(=O)c2ccc3nc[nH]c3c2)o1 | inconclusive: 164% |
| Cc1noc(C)c1S(=O)(=O)N(Cc1ccccc1)C(C)C | inconclusive: 106% |
| O=C(Nc1nc2c(Br)cc(Br)cc2c(=O)s1)C1CCC1 | inconclusive: 92% |
| Cc1onc(-c2ccccc2Cl)c1C(=O)OCC(=O)N1CCCc2ccccc21 | inactive: 106% |
| O=C(NNC(=S)NC1CC2C=CC1C2)c1ccncc1 (stereo not given) | inconclusive: 20.7% |
| O=C(NCC1CCCO1)c1cccnc1Nc1ccccc1F (stereo not given) | inactive: 112% |
| COc1ccc2nc(SCC(=O)NCCc3ccccc3)[nH]c2c1 | inconclusive: 99.4% |
| CC(C)CNC(=O)c1ccccc1NC(=O)c1ccc(CN2CCOCC2)cc1 | inactive: 102% |

| SMILES | binding response (% of control) |
| --- | --- |
| CCOC(=O)c1sc(C)c2c1NC(C)(c1cccs1)NC2=O (stereo not given) | inactive: 105% |
| CCCOc1ccc(/C=C/c2[nH]c(=O)[nH]c(=O)c2[N+](=O)[O-])cc1OCC | inconclusive: 100% |
| CNC(=S)NCCc1ccc(OC)cc1 | inconclusive: 96.8% |
| Cc1oc(S(=O)(=O)N(C)C)cc1C(=O)Nc1ccc(F)cc1 | inconclusive: 113% |
| CCOc1ccc(N(CC(=O)Nc2ccccc2)S(C)(=O)=O)cc1 | inactive: 85.1% |
| COc1ccc(-c2cc(C(F)(F)F)c(C#N)c(SCC(=O)Nc3ccccc3C#N)n2)cc1 | active: 153% [activator] |
| Cc1ccc(Oc2ncccc2NC(=O)CC2(CC(=O)O)CCCC2)c2c1CCC2 | inconclusive: 59.2% |
| O=C(Nc1ccccc1O)/C(=C\c1ccccc1)NC(=O)c1ccccc1 | inactive: 102% |
| CCOC(=O)Cc1csc(NC(=O)CCSc2ccccc2)n1 | inconclusive: 99.5% |
| O=C(Nc1ccccc1)N1CCCC(CNS(=O)(=O)Cc2ccccc2)C1 (stereo not given) | inactive: 107% |
| O=C(Nc1ccc(O)c2c(=O)cc(-c3ccccc3Cl)oc12)c1cccs1 | inconclusive: 115% |
| Cn1c2ccccc2c2cc(/C=C(\NC(=O)c3ccccc3)C(=O)O)ccc21 | inconclusive: 119% |
| O=C(CSCC(=O)Nc1cccc2ccccc12)Nc1cccc2ccccc12 | inconclusive: 98.2% |
| COc1ccccc1C(=O)NCCC(=O)Nc1cccnc1 | inconclusive: 123% |
| O=C(CSc1nc2ccccc2n1Cc1ccccc1Cl)N/N=C/c1ccccc1C(=O)O | inconclusive: 112% |
| CC(=O)O/N=C/c1c(NCc2ccccc2)nc2c(C)cccn2c1=O | inconclusive: 110% |
| COc1ccc(Br)cc1CNCCSc1nnnn1C | inactive: 97.1% |
| CCCN(CCC)C(=O)/C=C/c1cccc([N+](=O)[O-])c1 | inconclusive: 105% |
| COc1cc(N2C(=O)c3ccccc3C2=O)c(Cl)cc1C(=O)OCC(=O)N1CCOCC1 | inconclusive: 98.5% |
| COc1cc(N2C(=O)C=CC2=O)c(OC)cc1Cl | inconclusive: 136% |
| COc1cc(/C=C/c2noc(-c3ccccc3O)n2)ccc1OC(C)=O | inconclusive: 79.4% |
| COc1ccccc1N1CCN(C(=O)c2c(-c3ccccc3Cl)noc2C)CC1 | inactive: 73.7% |
| O=C(/C=C/c1cccc(F)c1)N1CCN(c2ncccn2)CC1 | inactive: 103% |

| SMILES | binding response (% of control) |
| --- | --- |
| CCN(CC)CCNC(=O)c1ccc(NC(C)=O)cc1 | inconclusive: 97.7% |
| COc1ccc(CCNC(=O)C(=O)Nc2ccc3c(c2)OCO3)cc1OC | inactive: 99.1% |
| CCN(CC)c1nc(OC)nc(-n2nnc(C(C)=O)c2C)n1 | inactive: 102% |
| N/C(=N\c1nc(CSc2ccc(Cl)cc2)cc(=O)[nH]1)Nc1ccccc1C(F)(F)F | inactive: 96% |
| O=C(CSc1nc2ncc(Cl)cc2[nH]1)c1c[nH]c2ccccc12 | inconclusive: 87.4% |
| Cc1ccc(C(=O)N2CCCC(c3ccc(Cl)cc3)=N2)cc1 | inactive: 102% |
| CCn1c(COc2ccc(=O)n(-c3ccccc3)n2)nnc1SCc1cccc(OC)c1 | active: -3.08% |
| N#CCCSCc1ccc(C(=O)O)o1 | inactive: 104% |
| Cc1c(NC(=O)C(C)OC(=O)COc2ccccc2)c(=O)n(-c2ccccc2)n1C (stereo not given) | inconclusive: 108% |
| Cc1ccc(NC(=O)Cn2nc(C)c([N+](=O)[O-])c2C)cc1C | inconclusive: 79.8% |
| Cc1nc(N)sc1-c1csc(Nc2ncccn2)n1 | inconclusive: 94.8% |
| Cc1ccc(N=C2NC(=O)/C(=C\c3ccc(C)s3)S2)cc1 | inactive: 95.2% |
| O=C(NCc1ccco1)c1ccc2c(c1)N(Cc1ccccc1)CCS2 | inconclusive: 134% |
| O=C(Nc1nccs1)c1cn2ccccc2n1 | inconclusive: 106% |
| CN=C1C=C/C(=N/N=c2\ccn(O)cc2C)C=C1C | inconclusive: 75.5% |
| c1ccc(Oc2cccc3cccnc23)nc1 | inconclusive: 111% |
| COc1ccc(N2C(=O)C3C(C2=O)C3(c2ccccc2)c2ccccc2)cc1 (stereo not given) | inconclusive: 91.3% |
| CN1/C(=C\C(=O)COC(=O)c2ccco2)C(C)(C)c2ccccc21 | inconclusive: 91.1% |
| CC(C)=C1C2CCC1C1C(=O)N(c3ccc(C)c(C)c3)C(=O)C21 (stereo not given) | inactive: 105% |
| O=C(Nc1nnc(-c2ccc(Cl)cc2)o1)C1CCCCC1 | inconclusive: 65.8% |
| O=C(O)c1ccc2ncc(NC(=O)c3ccc(F)cc3)c(=O)n2c1 | inconclusive: 85.2% |
| O=C(NC(Cc1ccccc1)C(=O)O)/C(=C/c1ccc([N+](=O)[O-])cc1)NC(=O)c1ccccc1Br (stereo not given) | inactive: 99.8% |
| CC(C)CNC(=O)C1CCN(c2ccc(S(=O)(=O)N3CCOCC3)cc2[N+](=O)[O-])CC1 | inconclusive: 105% |

Looked up one by one from the entries so far, three records:

| SMILES | binding response (% of control) |
| --- | --- |
| Cc1c(NC(=O)C(C)OC(=O)COc2ccccc2)c(=O)n(-c2ccccc2)n1C (stereo not given) | inconclusive: 108% |
| COc1ccc(CCNC(=O)C(=O)Nc2ccc3c(c2)OCO3)cc1OC | inactive: 99.1% |
| O=C(NCC1CCCO1)c1cccnc1Nc1ccccc1F (stereo not given) | inactive: 112% |

(next part)

| SMILES | binding response (% of control) |
| --- | --- |
| COc1ccc(CNC(=O)c2cnn3c(C(F)F)cc(C)nc23)cc1 | inactive: 132% |
| CC(Oc1ccccc1)C(=O)Nc1cccc(NC(=O)c2ccco2)c1 (stereo not given) | inconclusive: 91.8% |
| O=C(Nc1ccc(N2CCCCC2)cc1)c1ccc(F)cc1F | inconclusive: 49.7% |
| CCOC(=O)/C=C1\SCC(=O)N1CC(=O)Nc1ccc2c(c1)CCC2 | inactive: 98.5% |
| Cc1ccccc1NC(=O)C1CCCN1C(=O)NC1CCCCC1 (stereo not given) | inactive: 102% |
| O=C(N[C@H](C(=O)O)c1ccccc1)C1CCC(Cn2nnc3ccccc3c2=O)CC1 (stereo not given in full) | inconclusive: -114% |
| COc1ccc2[nH]c3c(=O)n(CCCCC(=O)NCCC(C)C)c(=S)[nH]c3c2c1 | inconclusive: 96.8% |
| Cc1cccc(NC(=O)c2ccc3c(Cl)c4c(nc3c2)CCCC4)n1 | inconclusive: 80.3% |
| CCN1/C(=C/c2ccc3cc(C)ccc3[n+]2CC)Sc2cc(C)c(C)cc21 | inactive: 144% |
| CCCn1c(SCC(=O)NNC(=O)c2ccccc2)nnc1-c1cccnc1 | inconclusive: 112% |
| CCCCN(C(=O)c1cccc2c(=O)c(C)c(-c3ccccc3)oc12)c1ccccc1 | inactive: 98.1% |
| COc1ccc(-n2c(CN3CCN(c4ccccn4)CC3)nc3ccc([N+](=O)[O-])cc3c2=O)c(OC)c1 | inconclusive: 109% |
| O=C(Nc1ccc(Cl)cc1)/C(=C1\CCCN1)[N+](=O)[O-] | inconclusive: -13.7% |
| COc1ccc(-c2cc(C(F)F)n3ncc(C(=O)Nc4cc(C)on4)c3n2)cc1 | inactive: 101% |
| CN(C)S(=O)(=O)c1ccccc1N=C=S | inconclusive: 13.3% |
| CN(C1CCCCC1)S(=O)(=O)c1ccc(S(=O)(=O)N(CC(=O)Nc2ccccc2)C2CC2)cc1 | inconclusive: 112% |
| COc1ccc(-n2c(CN3CCC(C(N)=O)CC3)nc3ccc([N+](=O)[O-])cc3c2=O)c(OC)c1 | inconclusive: 83.3% |
| CC(C)(C)c1ccc(-c2nnc(SCCN3C(=O)c4ccccc4C3=O)o2)cc1 | inactive: 103% |
| CC(C)(C)NC(=O)c1ccccc1NC(=O)C1CCCO1 (stereo not given) | inconclusive: 95.2% |
| COc1ccc(N=C2SC(CC(=O)Nc3ccccc3)C(=O)N2CCN2CCOCC2)cc1 (stereo not given) | inconclusive: 119% |
| Cc1cc(Sc2nnc(N)s2)c2ccccc2n1 | inconclusive: 6.69% |
